In the supplement of paper PMC8728848:
The other results are listed elsewhere or left out.

Experiments:
Experiment in all cases: glycan array binding signal (z-score within array); higher = stronger binding
Conditions in all cases: glycan notation: IUPAC condensed, linker removed
Fuc(a1-2)Gal = target: Fuc(a1-2)Gal
In short: (§1)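 Glycan array binding is given as a within-array Z-score, which can be read as non-binding when negative. The arrays, 3228 of them, came from the Consortium for Functional Glycomics database and were retained only where the protein sequence was available. Z-scores were averaged across arrays of the same protein sequence at different concentrations or buffers and across linkers.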

Fuc(a1-2)Gal(b1-3)GalNAc = target: Fuc(a1-2)Gal(b1-3)GalNAc
In short: as §1

[1] = target: Fuc(a1-2)Gal(b1-3)GalNAc(a1-3)[Fuc(a1-2)]Gal(b1-4)Glc
In short: as §1

[2] = target: Fuc(a1-2)Gal(b1-3)GalNAc(a1-3)[Fuc(a1-2)]Gal(b1-4)GlcNAc
In short: as §1

[3] = target: Fuc(a1-2)Gal(b1-3)GalNAc(b1-3)Gal
In short: as §1

[4] = target: Fuc(a1-2)Gal(b1-3)GalNAc(b1-3)Gal(a1-4)Gal(b1-4)Glc
In short: as §1

[5] = target: Fuc(a1-2)Gal(b1-3)GalNAc(b1-4)[Neu5Ac(a2-3)]Gal(b1-4)Glc
In short: as §1

Fuc(a1-2)Gal(b1-3)GlcNAc = target: Fuc(a1-2)Gal(b1-3)GlcNAc
In short: as §1

[6] = target: Fuc(a1-2)Gal(b1-3)GlcNAc(b1-2)Man(a1-3)[Fuc(a1-2)Gal(b1-3)GlcNAc(b1-2)Man(a1-6)]Man(b1-4)GlcNAc(b1-4)GlcNAc
In short: as §1

[7] = target: Fuc(a1-2)Gal(b1-3)GlcNAc(b1-2)Man(a1-3)[Fuc(a1-2)Gal(b1-3)GlcNAc(b1-2)Man(a1-6)]Man(b1-4)GlcNAc(b1-4)[Fuc(a1-6)]GlcNAc
In short: as §1

[8] = target: Fuc(a1-2)Gal(b1-3)GlcNAc(b1-3)Gal(b1-4)Glc
In short: as §1

[9] = target: Fuc(a1-2)Gal(b1-3)GlcNAc(b1-3)GalNAc
In short: as §1

[10] = target: Fuc(a1-2)Gal(b1-3)GlcNAc(b1-3)[Fuc(a1-2)Gal(b1-3)GlcNAc(b1-6)]GalNAc
In short: as §1

[11] = target: Fuc(a1-2)Gal(b1-3)GlcNAc(b1-3)[Gal(b1-4)GlcNAc(b1-6)]Gal(b1-4)Glc
In short: as §1

[12] = target: Fuc(a1-2)Gal(b1-3)GlcNAc(b1-3)[Neu5Ac(a2-6)Gal(b1-4)GlcNAc(b1-6)]Gal(b1-4)Glc
In short: as §1

[13] = target: Fuc(a1-2)Gal(b1-3)GlcNAc6S
In short: as §1

[14] = target: Fuc(a1-2)Gal(b1-3)[Fuc(a1-4)]GlcNAc
In short: as §1

[15] = target: Fuc(a1-2)Gal(b1-3)[Fuc(a1-4)]GlcNAc(b1-2)Man(a1-3)[Fuc(a1-2)Gal(b1-3)[Fuc(a1-4)]GlcNAc(b1-2)Man(a1-3)]Man(b1-4)GlcNAc(b1-4)GlcNAc
In short: as §1

[16] = target: Fuc(a1-2)Gal(b1-3)[Fuc(a1-4)]GlcNAc(b1-2)Man(a1-3)[Fuc(a1-2)Gal(b1-3)[Fuc(a1-4)]GlcNAc(b1-2)Man(a1-6)]Man(b1-4)GlcNAc(b1-4)[Fuc(a1-6)]GlcNAc(b1-4)[Fuc(a1-6)]GlcNAc
In short: as §1

[17] = target: Fuc(a1-2)Gal(b1-3)[Fuc(a1-4)]GlcNAc(b1-3)[Fuc(a1-3)[Gal(b1-4)]GlcNAc(b1-6)]Gal(b1-4)Glc
In short: as §1

[18] = target: Fuc(a1-2)Gal(b1-3)[Fuc(a1-4)]GlcNAc(b1-3)[Gal(b1-4)GlcNAc(b1-6)]Gal(b1-4)Glc
In short: as §1

Fuc(a1-2)Gal(b1-4)Glc = target: Fuc(a1-2)Gal(b1-4)Glc
In short: as §1

Fuc(a1-2)Gal(b1-4)Glc6S = target: Fuc(a1-2)Gal(b1-4)Glc6S
In short: as §1

Fuc(a1-2)Gal(b1-4)GlcNAc = target: Fuc(a1-2)Gal(b1-4)GlcNAc
In short: as §1

[19] = target: Fuc(a1-2)Gal(b1-4)GlcNAc(b1-2)Man
In short: as §1

[20] = target: Fuc(a1-2)Gal(b1-4)GlcNAc(b1-2)Man(a1-3)[Fuc(a1-2)Gal(b1-4)GlcNAc(b1-2)Man(a1-6)]Man(b1-4)GlcNAc(b1-4)GlcNAc
In short: as §1

[21] = target: Fuc(a1-2)Gal(b1-4)GlcNAc(b1-2)Man(a1-3)[Fuc(a1-2)Gal(b1-4)GlcNAc(b1-2)Man(a1-6)]Man(b1-4)GlcNAc(b1-4)[Fuc(a1-6)]GlcNAc
In short: as §1

[22] = target: Fuc(a1-2)Gal(b1-4)GlcNAc(b1-2)[Fuc(a1-2)Gal(b1-4)GlcNAc(b1-4)]Man(a1-3)[Fuc(a1-2)Gal(b1-4)GlcNAc(b1-2)Man(a1-6)]Man(b1-4)GlcNAc(b1-4)GlcNAc
In short: as §1

[23] = target: Fuc(a1-2)Gal(b1-4)GlcNAc(b1-3)Gal(b1-4)GlcNAc
In short: as §1

[24] = target: Fuc(a1-2)Gal(b1-4)GlcNAc(b1-3)Gal(b1-4)GlcNAc(b1-2)Man(a1-3)[Fuc(a1-2)Gal(b1-4)GlcNAc(b1-3)Gal(b1-4)GlcNAc(b1-2)Man(a1-6)]Man(b1-4)GlcNAc(b1-4)GlcNAc
In short: as §1

[25] = target: Fuc(a1-2)Gal(b1-4)GlcNAc(b1-3)Gal(b1-4)GlcNAc(b1-3)Gal(b1-4)GlcNAc
In short: as §1

[26] = target: Fuc(a1-2)Gal(b1-4)GlcNAc(b1-3)GalNAc
In short: as §1

[27] = target: Fuc(a1-2)Gal(b1-4)GlcNAc(b1-3)[Fuc(a1-2)Gal(b1-4)GlcNAc(b1-6)]GalNAc
In short: as §1

[28] = target: Fuc(a1-2)Gal(b1-4)GlcNAc(b1-3)[Fuc(a1-3)[Gal(b1-4)]GlcNAc(b1-6)]Gal(b1-4)Glc
In short: as §1

[29] = target: Fuc(a1-2)Gal(b1-4)GlcNAc(b1-6)GalNAc
In short: as §1

[30] = target: Fuc(a1-2)Gal(b1-4)GlcNAc6S
In short: as §1

[31] = target: Fuc(a1-2)Gal(b1-4)[Fuc(a1-3)]GlcNAc
In short: as §1

B1: GS7807G-bfa-506-18-506 (Bacteroides fragilis) (protein)
chain: ASCDKFDEINTDPDATTKVTSSLLATGLLLDITSSSASKSFIYDELLAKQMAWGESMEDYQYNVFGRSGFGGYTTLINAQKMVESVSDDNVNAYDGLAHFIKAYKIFYMSMEMGDLPYEEALQGELGLVRPKYNTQKEVMNFILSDLETAYELFSTAKDFDGDPILGGSISKWKKATTAFQLKVLMHLSKKESDADLKVKERFARIVASGSLMESNEDNLQMKYADKANTVYPFHNTNTKHAGYAMLSTMLIDKFKATGDIRMFYYAKPAKAKLNEGVTADSWDAYIGTDPSLPFEQIEKAYATEQYSGFNARYTDYPSGEPVVRLGYAEQNFILAEAAVRGWISGDASAYYKKAIRAHMEFIASNTPDEEVYHHGHPITEEAIAAFLETPAIQLSGEKEEDIEKILTQRYLASFMQHPYDVYYDYRRTGYPVLPINPATNRNTMNDRLPMRWMYPKSESDYNLEHQNEALERQFGGVDDVNKLMWILQ
glycan array binding signal (z-score) (Fuc(a1-2)Gal): -0.293 | glycan array binding signal (z-score) (Fuc(a1-2)Gal(b1-3)GalNAc): -0.62 | glycan array binding signal (z-score) [1]: -0.851 | glycan array binding signal (z-score) [2]: -0.845 | glycan array binding signal (z-score) [3]: -0.909 | glycan array binding signal (z-score) [4]: -0.698 | glycan array binding signal (z-score) [5]: -0.68 | glycan array binding signal (z-score) (Fuc(a1-2)Gal(b1-3)GlcNAc): -0.373 | glycan array binding signal (z-score) [6]: -0.108 | glycan array binding signal (z-score) [7]: 0.142 | glycan array binding signal (z-score) [8]: -0.527 | glycan array binding signal (z-score) [9]: -0.395 | glycan array binding signal (z-score) [10]: 3.91 | glycan array binding signal (z-score) [11]: 0.516 | glycan array binding signal (z-score) [12]: -0.857 | glycan array binding signal (z-score) [13]: -0.371 | glycan array binding signal (z-score) [14]: -1.01 | glycan array binding signal (z-score) [15]: 0.421 | glycan array binding signal (z-score) [16]: -0.199 | glycan array binding signal (z-score) [17]: -0.408 | glycan array binding signal (z-score) [18]: -0.803 | glycan array binding signal (z-score) (Fuc(a1-2)Gal(b1-4)Glc): -0.597 | glycan array binding signal (z-score) (Fuc(a1-2)Gal(b1-4)Glc6S): 0.434 | glycan array binding signal (z-score) (Fuc(a1-2)Gal(b1-4)GlcNAc): -0.46 | glycan array binding signal (z-score) [19]: 0.262 | glycan array binding signal (z-score) [20]: 1.25 | glycan array binding signal (z-score) [21]: -0.467 | glycan array binding signal (z-score) [22]: -0.031 | glycan array binding signal (z-score) [23]: -0.967 | glycan array binding signal (z-score) [24]: 0.95 | glycan array binding signal (z-score) [25]: -0.968 | glycan array binding signal (z-score) [26]: 0.625 | glycan array binding signal (z-score) [27]: 1.32 | glycan array binding signal (z-score) [28]: -0.145 | glycan array binding signal (z-score) [29]: 1.75 | glycan array binding signal (z-score) [30]: -0.487 | glycan array binding signal (z-score) [31]: -0.916
